Values of other authors, collected in US20120184894A1, “Patches and Methods for the Transdermal Delivery of Agents to Treat Hair Loss” (priority 2010, published 2012).
At least one compound was matched to its structure with a doubt left.

Tested on: numbers of terminal hairs
Details: 2% Minoxidil, topical, after 4-12 months

Nc1cc(N2CCCCC2)nc(N)[n+]1[O-] [Minoxidil, minoxidil]
numbers of terminal hairs: increase in the numbers of terminal hairs
